For at least one entry, the source does not settle the construct or the ends of the probe. A negative result means that nothing was seen under these conditions. At least one verdict was read from the data and is not stated in words by the source.
Target: PARP-1 (human) (UniProt P09874)
Assay: EMSA
Conditions: EMSA: 20 mM Na-HEPES pH 7.5, 0.1 mM DTT, 0.05% Triton X-100, 100 ug/mL BSA, 5 mM MgCl2, 2 mM ATP, 100 nM DNA, 37 C 10 min, then 0.2% glutaraldehyde 15 min, recombinant protein, label: 32P

The chains behind the UniProt entries cited, without tags or fusion partners.
UniProt P09874, whole entry: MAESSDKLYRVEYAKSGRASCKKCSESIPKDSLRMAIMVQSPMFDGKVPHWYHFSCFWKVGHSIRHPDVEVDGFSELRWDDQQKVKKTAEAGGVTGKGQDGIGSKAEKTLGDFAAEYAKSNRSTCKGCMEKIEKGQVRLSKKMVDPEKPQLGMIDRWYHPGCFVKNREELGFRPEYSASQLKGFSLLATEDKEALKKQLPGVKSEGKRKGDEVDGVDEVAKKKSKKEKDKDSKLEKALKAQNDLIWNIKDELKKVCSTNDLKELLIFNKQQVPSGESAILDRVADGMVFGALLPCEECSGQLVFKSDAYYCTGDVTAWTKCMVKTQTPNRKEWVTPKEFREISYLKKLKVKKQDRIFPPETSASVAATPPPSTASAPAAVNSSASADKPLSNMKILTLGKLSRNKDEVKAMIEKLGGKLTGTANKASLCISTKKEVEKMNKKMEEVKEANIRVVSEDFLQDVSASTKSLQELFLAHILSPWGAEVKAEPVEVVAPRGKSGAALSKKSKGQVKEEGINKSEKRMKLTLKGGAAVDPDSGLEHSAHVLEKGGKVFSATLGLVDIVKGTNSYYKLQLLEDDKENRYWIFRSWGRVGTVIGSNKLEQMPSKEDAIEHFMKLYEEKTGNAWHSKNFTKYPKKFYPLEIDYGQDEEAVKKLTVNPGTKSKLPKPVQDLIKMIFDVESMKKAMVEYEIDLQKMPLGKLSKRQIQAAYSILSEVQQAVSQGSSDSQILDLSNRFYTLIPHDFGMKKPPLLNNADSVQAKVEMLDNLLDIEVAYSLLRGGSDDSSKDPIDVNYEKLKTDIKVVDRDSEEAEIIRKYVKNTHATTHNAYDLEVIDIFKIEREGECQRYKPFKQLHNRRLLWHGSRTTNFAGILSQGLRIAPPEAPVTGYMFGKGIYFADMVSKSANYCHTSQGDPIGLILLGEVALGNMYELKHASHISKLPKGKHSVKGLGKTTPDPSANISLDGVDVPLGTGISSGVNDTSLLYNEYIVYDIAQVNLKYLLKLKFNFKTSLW

Q: Does “GGGCGAATTGGGCCCGACGTCGCATGCTCCTCTAGACTCGAGGAATTCGGTACCCCGGGTTCGAAATCGATAAGCTTACAGTCTCCATTTAAAGGACAAG (double strand) [JYM696/JYM698]” bind (250 uM NAD+, automodification releases PARP-1 from DNA)?
A: Result: no binding

Q: Does “GGGCGAATTGGGCCCGACGTCGCATGCTCCTCTAGACTCGAGGAATTCGGTACCCCGGGTTCGAAATCGATAAGCTTACAGTCTCCATTTAAAGGACAAG (double strand) [JYM696/JYM698]” bind (no NAD, 5 mM Mg2+, 2 mM ATP, glutaraldehyde-fixed)?
A: Result: binds
